# Reference: PubChem BioAssay AID1259415 (National Center for Advancing Translational Sciences (NCATS), 2018)
# “And” between values parts separate entries of the source, which are not always exact repeats. Equal values may be shown once. Out of some 410,000 compounds screened, about 18,000 (4.4%) were called active. Inconclusive means that the source gave no clear call. Such entries were picked first, then a sample of the others. Cut-off read from the data, not from the text of the source: active = activity change below about -60%; inconclusive = no clear call, values can overlap the other calls; inactive = above about -39%. Some compounds were tested as several samples or in several runs, with calls that do not always agree.
# Test: qHTS Assay for inhibitors of the human cytomegalovirus (HCMV)
# Settings: HFF cells, HCMV-luciferase reporter, 72 h; at 57.5 µM; stronger effect = lower value
# Procedure, shortened: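 After 16 h attachment at 37C, HFF cells received test compound and HCMV-luciferase (1 PFU/cell); reporter luminescence read 72 h later, data normalized against buffer-only and known inhibitor Salinomycin.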
# % is set by controls: 0 for no effect and ±100 for the full control effect.
row,SMILES,"activity change, negative = inhibition"
1,CCc1ccccc1N1C(=O)CN(Cc2cc(OC)c(OC)c(OC)c2)C1=S,inactive: -14.8%
2,CCS(=O)(=O)c1nc(S(=O)(=O)c2ccc(C)cc2)c(N2CCCCCC2)s1,inactive: -3.94%
3,COc1ccc(NC(=O)C23CC4CC(C2)CC(c2ccc(C)cc2)(C4)C3)cc1,inconclusive: -52.1%
4,CCOC(=O)C(C)/C(C)=N/NC(=O)c1cc2ccccc2cc1O (stereo not given),active: -74%
5,COc1ccc(CN(CC(O)COc2cccc3[nH]cc(C)c23)C(C)(C)C)cc1 (stereo not given),inconclusive: -56.3%
6,CCC(=O)N/C(=N/c1nc(C)cc(C)n1)Nc1cccc(OC)c1,inconclusive: -50.7%
7,N=c1c(C(=O)NCC2CCCO2)cc2c(=O)n3ccccc3nc2n1Cc1ccc(Cl)cc1 (stereo not given),active: -83.3%
8,COc1ccccc1C(=O)N/N=C/c1ccc(Cl)s1,inactive: 55.5%
9,COc1ccc(Oc2ccc(/C=C/C(=O)c3cccc(OC)c3)cc2[N+](=O)[O-])cc1,inconclusive: -46.7%
10,CC1C(=O)N(Cc2cn(Cc3ccco3)nn2)CCS(=O)(=O)N1Cc1ccc(-c2cccc(N(C)C)c2)cc1 (stereo not given),inactive: -4.27%
11,C[C@H](c1ccccc1)N1C[C@H](COCc2ccccc2)Oc2cc(N3CC[C@H](O)C3)ccc2S1(=O)=O,inconclusive: -57.1%
12,Cc1cc(C)nc(SCC(=O)N/N=C/c2cccn2-c2cccc(C(F)(F)F)c2)n1,inactive: -26.8%
13,Oc1ccc(N=Cc2sc3ccccc3c2Cl)cc1,inconclusive: -40%
14,CCOc1ccc(OCC)c(NC(=O)Cn2nc(CC)n3c(cc4sccc43)c2=O)c1,inactive: 1.4%
15,CCOCCCNC(=O)CCc1ccc(-n2cnc3cccnc32)cc1,active: -67.4%
16,O=C(c1ccccc1)C(CN1CCCCC1)c1ccccc1 (stereo not given),active: -67.7%
17,CC1CCCCC1NC(=O)c1ccc(CSc2nc3ccncc3[nH]2)cc1 (stereo not given),inactive: -21.7%
18,CCOC(=O)C1CCN(C(=O)COc2cc(C)c(Br)cc2C)CC1,inconclusive: -42.7%
19,CCOC(=O)Cc1csc(NC(=O)Nc2cccc(OC)c2)n1,inactive: 50.8%
20,NC(=S)N/N=C/c1ccc2ccccc2c1,inactive: -24.9%
21,CC(CS(=O)(=O)c1ccc2c(c1)NC(=O)CS2)C(=O)N1CCN(c2cccc(Cl)c2)CC1 (stereo not given),inconclusive: -41.4%
22,Oc1ccc(/C=N/NC(=S)N/N=C/c2ccc(O)cc2)cc1,inconclusive: -45.4%

row,SMILES,"activity change, negative = inhibition"
1,CCOc1ccc(S(=O)(=O)N(CC(=O)NCc2ccccc2OC)c2ccccc2)cc1,active: -61.8%
2,COc1cccc(CSc2nc3n(n2)C(CC(C)C)C(C(=O)Nc2ccccc2OC)=C(C)N3)c1 (stereo not given),active: -69.5%
3,CCCSC(=S)NC1CCS(=O)(=O)C1 (stereo not given),inconclusive: -42.3%
4,COc1ccc(C(=O)N2CCC(C(=O)Nc3ccc(Cl)cc3)CC2)cc1,inactive: -22.2%
5,O=C(c1cccc(-c2ccccc2)c1)N1CC[C@@H](N2CCC(O)CC2)[C@H](O)C1,inconclusive: 0%
6,CCOC(=O)N1CCC(NC(=O)c2ccc3c(c2)N=C(CC)c2ccccc2S3)CC1,inconclusive: 0%
7,COc1ccc([C@@H]2[C@@H]3C(=O)N(C(C)(C)C)C(=O)[C@@H]3[C@]3(Cc4ccccc4)C(=O)N(c4cccc(Br)c4)C(=O)N23)cc1,inconclusive: -44.2%
8,CCCCN(CC)C(=O)c1cc2c(=O)n3cccc(C)c3nc2n1C,inconclusive: -56.4%
9,CCNC(=O)C1(C)CCN(Cc2cccc3ccccc23)C1 (stereo not given),inactive: -6.3%
10,CCc1ccc(Oc2c(C(F)(F)F)oc3c(CN4CCC(C)CC4)c(O)ccc3c2=O)cc1,inactive: 1.51%
11,O=S(=O)(NC1CCCCC1Sc1ncccn1)c1ccccc1 (stereo not given),inconclusive: -41.3%
12,COc1ccc(CCC(C)Nc2ccccc2F)cc1 (stereo not given),inconclusive: -40%
13,O=C(CC(SCCO)c1ccc(F)cc1)c1ccco1 (stereo not given),inactive: 12.2%
14,COc1ccc(CCNC(=O)c2ccc3c(c2)N(Cc2ccc(Cl)cc2)C(=O)c2ccccc2S3)cc1OC,inconclusive: -51.5%
15,CC(=O)c1ccc(S(=O)(=O)N2CCN(CC(=O)Nc3ccccc3C(=O)NC3CC3)CC2)cc1,inactive: -5.59%
16,COc1ccc(N(CC(=O)Nc2cc(C)on2)S(=O)(=O)c2cc(C)ccc2C)cc1,active: -91%
17,Cc1ccccc1Nc1c(-c2ccc(Br)o2)nc2ccc(Cl)cn12,inactive: -13.6%
18,COc1ccc(N2CCN(C(=O)COC(=O)CC(NC(N)=O)c3ccc(Cl)cc3)CC2)cc1 (stereo not given),active: -62%
19,Cc1ccc(C(=O)Nc2sc(C)c(C)c2C(=O)c2ccccc2)cc1,inconclusive: -57%
20,CC(C)CCNC(=O)Nc1ccc2c(c1)N(Cc1ccccc1)C(=O)c1ccccc1S2,inactive: -20.2%
21,O=S(=O)(c1ccc(Cl)nc1)N1CCCc2ccccc21,inconclusive: -59.6%
22,COc1cccc(/C=N/Nc2ccc(C(=O)O)cc2)c1O,active: -95.4%

row,SMILES,"activity change, negative = inhibition"
1,O=C(C1CCCN(c2ncccn2)C1)N1CCc2ccccc21 (stereo not given),inconclusive: -49.5%
2,COc1cc(S(=O)(=O)Nc2ccccc2N2CCCCC2)ccc1NC(C)=O,inactive: -20.4%
3,CCCCCc1ccc(-c2cn(CCCOCc3ccccc3)nn2)cc1,inactive: -12.9%
4,Cc1occc1C(=O)N1CCCC(N2CCN(c3cccc(C(F)(F)F)c3)CC2)C1 (stereo not given),inconclusive: -58.7%
5,O=C(NC1CC1)c1cc2c(s1)-c1ccccc1OC2,inconclusive: -56.6%
6,COc1cc2ncnc(NCc3ccc(Cl)cc3)c2cc1OC,active: -78.3%
7,CCN(CC)S(=O)(=O)c1cccc(C(=O)N[C@H](C(=O)Nc2nc3ccc(F)cc3s2)C(C)C)c1,inactive: 150%
8,CCOC(=O)N1CCN(C(=O)c2ccc3ccccc3c2)CC1,inactive: -24.4%
9,CCOCCCn1c(=S)[nH]c2cc(C(=O)NC3CCCC(C)C3C)ccc2c1=O (stereo not given),inconclusive: -47.5%
10,COc1ccc(OC)c(/C=C/C(=O)N(C)CC(=O)Nc2ccc(C)cc2)c1,inconclusive: -50.3%
11,Cc1ccc(SCC(=O)OC(C)C(=O)NC2CCCCC2C)c(C)c1 (stereo not given),inconclusive: 0%
12,CC(=O)c1ccc(NC(=O)CCCN2C(=O)COc3ccc(C)cc32)cc1,inactive: 20.4%
13,Cc1ccc(S(=O)(=O)c2nc(-c3ccccc3)oc2SCC(=O)NCC2CCCO2)cc1 (stereo not given),inconclusive: -40.3%
14,COc1ccccc1C(=O)N1CCC(c2noc(-c3ccc(S(=O)(=O)N4CCCC4)cc3)n2)CC1,active: -84.2%
15,COC(=O)C[C@@H]1C=C[C@H](NC(=O)c2ccccc2)[C@@H](CO)O1,inconclusive: -40.7%
16,O=C(CN1CCCCCC1)Nc1cccc(Br)c1,inconclusive: -42.9%
17,O=C(NCCc1ccc(Cl)cc1)c1ccc(CS(=O)Cc2ccccc2Cl)o1 (stereo not given),inactive: -39.2% and active: -65.9%
18,CCOC(=O)C1CCN(S(=O)(=O)c2cccc(-c3cn4cc(Cl)ccc4n3)c2)CC1,inconclusive: -59.6%
19,O=C(c1ccco1)N1CCN(c2ncnc3c2nnn3Cc2ccccc2Cl)CC1,inactive: -31.6%
20,CN(C)c1nc(NCc2ccccc2)nc(N/N=C/c2ccc3c(c2)OCO3)n1,inconclusive: -40.9%
21,Cc1noc(/C=C/c2nn(C)cc2Cl)c1[N+](=O)[O-],active: -98.4%
22,Cc1noc(C)c1CSc1nnc(-c2cccnc2)n1C1CCCCC1C (stereo not given),inactive: 45.8%

# Individual results from the entries so far.
# NC(=S)N/N=C/c1ccc2ccccc2c1 | activity change, negative = inhibition: inactive: -24.9%
# O=S(=O)(c1ccc(Cl)nc1)N1CCCc2ccccc21 | activity change, negative = inhibition: inconclusive: -59.6%
# COc1cc2ncnc(NCc3ccc(Cl)cc3)c2cc1OC | activity change, negative = inhibition: active: -78.3%
# COc1ccc(OC)c(/C=C/C(=O)N(C)CC(=O)Nc2ccc(C)cc2)c1 | activity change, negative = inhibition: inconclusive: -50.3%
# CCOC(=O)C1CCN(S(=O)(=O)c2cccc(-c3cn4cc(Cl)ccc4n3)c2)CC1 | activity change, negative = inhibition: inconclusive: -59.6%

# The list continues.

row,SMILES,"activity change, negative = inhibition"
1,O=C(N/N=C/c1cc2c3c(c1O)CCCN3CCC2)c1ccccc1O,active: -99.9%
2,CC(CCc1ccccc1)NC(=O)COC(=O)c1ccc(S(C)(=O)=O)c([N+](=O)[O-])c1 (stereo not given),active: -98.5%
3,CC(CNC(=O)CC[C@H]1O[C@@H](n2ccc(=O)[nH]c2=O)[C@H](O)[C@@H]1O)c1ccccc1 (stereo not given in full),inactive: -10.3%
4,COc1cc(CNC(C)c2ccccc2)cc(Br)c1OCc1ccc(F)cc1 (stereo not given),inconclusive: -49%
5,CCCc1cc(C(=O)Nc2ccccc2SC)no1,inactive: -7.83%
6,O=C(CCc1nc2ccccc2c(=O)[nH]1)Nc1ccccc1N1CCCCC1,inconclusive: -58.2%
7,COc1ccc(CCNC(=O)c2ccc(OCc3c(C)noc3C)c(OC)c2)cc1,inconclusive: -41.5%
8,CCn1c(=O)c2[nH]c(Cl)nc2n(CC)c1=O,inconclusive: -54.2%
9,CCn1c(C)nc2cc(C(=O)N/N=C(\C)c3ccc(OC)cc3O)ccc21,inconclusive: -56.4%
10,O=C(Nc1ccccc1Cl)N(Cc1nc2ccccc2c(=O)[nH]1)Cc1cccs1,inconclusive: -51.7%
11,CCO/C(C)=N/n1c2nc3ccccc3nc2c2c(=O)n(Cc3ccccc3Cl)c(C)nc21,inconclusive: -51.2%
12,Cc1ccc(S(=O)(=O)N2CCN(c3ncnc4sccc34)CC2)cc1C,active: -72.3%
13,COc1ccc(-n2c(SCC(=O)N/N=C/c3ccccc3OCC(=O)O)nc3ccccc3c2=O)cc1,inactive: -8.75%
14,COc1ccc(C(=O)Nc2ccc(-c3ccc(C)o3)cc2)cc1S(=O)(=O)N1CCOCC1,active: -96.1%
15,COc1ccc(C2CC(=O)C3=C(C2)NC(C)=C(C#N)C3c2ccc(N(C)C)cc2)cc1 (stereo not given),inactive: 2.55%
16,COc1cccc(C(=O)Nc2ccc3nc(SCC(=O)N4CCOCC4)sc3c2)c1,inactive: 24.9%
17,CCOC(=O)c1c(C)oc2ncnc(N3CCN(c4ccccc4F)CC3)c12,inactive: -15.2%
18,Cc1ccc(NC(=O)c2cc([N+](=O)[O-])ccc2N2CCOCC2)cc1C,inconclusive: -50%
19,CNC(=S)N1CCN(c2nc(-c3ccc(F)cc3)cs2)CC1,inconclusive: -41.1%
